The list shows a part of the results. Hit calls seldom repeat between salt and free forms of one compound.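 Kinases were expressed as nanoluciferase fusions in K562 cells and luminescence was read every 4 h between 2 and 18 h as percent of control, DMSO set to 100% and a positive control to 0%. A time point counts as decreased when the signal drops significantly (2 sigma). The hit call is the authors' own, does not follow from the count of time points alone, and its rule is not shown.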
Tests used:
Assay in all cases: kinase-Nluc reporter destabilization hit call (1 = scored as downregulated) (binary); higher = compound decreases kinase abundance
Conditions in all cases: K562; 2-18 h
EGFR = EGFR (UniProt P00533)
EGFR_G719S = EGFR_G719S (UniProt P00533)
EGFR_G719S_T790M = EGFR_G719S_T790M (UniProt P00533)
EGFR_L718V = EGFR_L718V (UniProt P00533)
EGFR_L858R = EGFR_L858R (UniProt P00533)
EGFR_L861Q = EGFR_L861Q (UniProt P00533)
EGFR_T790M = EGFR_T790M (UniProt P00533)
EPHA2 = EPHA2 (UniProt P29317)
ERBB3 = ERBB3 (UniProt P21860)
[1] = target: ERBB4_R711C (clone: ERBB4_mut) (UniProt Q15303)
ERN1 = ERN1 (UniProt O75460)
FGFR1 = FGFR1 (UniProt P11362)
FGFR2 = FGFR2 (UniProt P21802)
FGFR3 = FGFR3 (UniProt P22607)
FGR = FGR (UniProt P09769)
FLT3 = FLT3 (UniProt P36888)
FYN = FYN (UniProt P06241)
GSK3A = GSK3A (UniProt P49840)
HER2 = HER2 (UniProt P04626)
INSRR = INSRR (UniProt P14616)

Sequences of proteins named here, by UniProt entry; tags and fusion partners are left off. A change or cut given only in a name is not applied to a line headed by its entry.
UniProt P21860, whole entry: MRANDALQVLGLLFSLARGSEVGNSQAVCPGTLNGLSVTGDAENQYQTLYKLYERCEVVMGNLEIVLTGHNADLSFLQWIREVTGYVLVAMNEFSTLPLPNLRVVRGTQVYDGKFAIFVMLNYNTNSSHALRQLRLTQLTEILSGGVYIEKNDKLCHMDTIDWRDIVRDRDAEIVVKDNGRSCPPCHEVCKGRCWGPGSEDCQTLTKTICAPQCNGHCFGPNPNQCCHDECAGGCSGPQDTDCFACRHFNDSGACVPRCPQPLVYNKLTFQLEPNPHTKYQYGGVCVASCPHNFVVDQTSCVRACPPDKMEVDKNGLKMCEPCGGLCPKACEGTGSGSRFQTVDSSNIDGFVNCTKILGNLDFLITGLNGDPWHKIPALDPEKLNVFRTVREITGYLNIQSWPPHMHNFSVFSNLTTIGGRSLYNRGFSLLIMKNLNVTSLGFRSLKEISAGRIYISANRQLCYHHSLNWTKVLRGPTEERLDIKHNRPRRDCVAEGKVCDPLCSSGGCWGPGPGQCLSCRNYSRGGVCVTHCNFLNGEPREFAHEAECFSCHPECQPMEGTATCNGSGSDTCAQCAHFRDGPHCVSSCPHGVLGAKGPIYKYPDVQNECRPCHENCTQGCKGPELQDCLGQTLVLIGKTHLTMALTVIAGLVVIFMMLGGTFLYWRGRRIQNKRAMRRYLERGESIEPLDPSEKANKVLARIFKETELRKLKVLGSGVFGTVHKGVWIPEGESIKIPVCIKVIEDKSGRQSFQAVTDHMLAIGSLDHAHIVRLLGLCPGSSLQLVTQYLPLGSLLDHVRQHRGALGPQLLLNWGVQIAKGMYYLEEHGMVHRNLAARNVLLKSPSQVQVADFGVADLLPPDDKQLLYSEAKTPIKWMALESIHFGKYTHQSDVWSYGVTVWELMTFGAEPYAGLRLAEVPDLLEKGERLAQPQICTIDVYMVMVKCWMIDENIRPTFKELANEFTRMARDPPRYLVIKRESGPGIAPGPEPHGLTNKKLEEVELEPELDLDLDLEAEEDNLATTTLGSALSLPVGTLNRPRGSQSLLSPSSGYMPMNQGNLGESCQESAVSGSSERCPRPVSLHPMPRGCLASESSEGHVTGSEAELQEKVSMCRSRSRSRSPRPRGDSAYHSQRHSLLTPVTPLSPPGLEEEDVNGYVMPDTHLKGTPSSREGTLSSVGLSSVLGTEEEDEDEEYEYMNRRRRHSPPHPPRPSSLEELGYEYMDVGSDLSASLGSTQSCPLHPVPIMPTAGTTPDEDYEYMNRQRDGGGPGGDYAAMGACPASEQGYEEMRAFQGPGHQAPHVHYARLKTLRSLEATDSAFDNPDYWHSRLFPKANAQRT
UniProt O75460: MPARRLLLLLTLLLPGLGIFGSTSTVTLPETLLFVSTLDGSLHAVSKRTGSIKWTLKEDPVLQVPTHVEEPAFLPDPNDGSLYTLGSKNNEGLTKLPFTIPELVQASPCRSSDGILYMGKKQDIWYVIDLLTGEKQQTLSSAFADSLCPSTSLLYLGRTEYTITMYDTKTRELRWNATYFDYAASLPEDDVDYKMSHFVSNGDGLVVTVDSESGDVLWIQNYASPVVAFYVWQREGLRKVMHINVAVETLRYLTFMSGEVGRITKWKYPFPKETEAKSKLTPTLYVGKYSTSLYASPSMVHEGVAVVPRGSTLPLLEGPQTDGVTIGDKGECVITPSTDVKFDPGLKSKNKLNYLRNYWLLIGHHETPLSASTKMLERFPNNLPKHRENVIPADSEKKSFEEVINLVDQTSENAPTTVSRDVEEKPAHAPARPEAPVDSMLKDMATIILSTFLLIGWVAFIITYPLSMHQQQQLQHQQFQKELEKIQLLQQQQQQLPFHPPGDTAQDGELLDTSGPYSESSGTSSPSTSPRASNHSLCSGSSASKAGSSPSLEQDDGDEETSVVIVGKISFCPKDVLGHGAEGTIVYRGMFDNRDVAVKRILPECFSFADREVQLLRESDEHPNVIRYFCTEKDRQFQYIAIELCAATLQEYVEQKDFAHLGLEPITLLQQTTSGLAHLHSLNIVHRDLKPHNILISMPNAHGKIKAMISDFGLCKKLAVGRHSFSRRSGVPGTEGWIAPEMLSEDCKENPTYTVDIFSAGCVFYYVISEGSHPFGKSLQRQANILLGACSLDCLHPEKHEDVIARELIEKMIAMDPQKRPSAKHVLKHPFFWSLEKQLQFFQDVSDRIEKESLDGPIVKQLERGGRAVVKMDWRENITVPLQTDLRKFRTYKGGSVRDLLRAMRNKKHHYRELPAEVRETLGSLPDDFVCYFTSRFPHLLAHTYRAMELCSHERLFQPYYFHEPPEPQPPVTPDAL
UniProt P21802, whole entry, looked up: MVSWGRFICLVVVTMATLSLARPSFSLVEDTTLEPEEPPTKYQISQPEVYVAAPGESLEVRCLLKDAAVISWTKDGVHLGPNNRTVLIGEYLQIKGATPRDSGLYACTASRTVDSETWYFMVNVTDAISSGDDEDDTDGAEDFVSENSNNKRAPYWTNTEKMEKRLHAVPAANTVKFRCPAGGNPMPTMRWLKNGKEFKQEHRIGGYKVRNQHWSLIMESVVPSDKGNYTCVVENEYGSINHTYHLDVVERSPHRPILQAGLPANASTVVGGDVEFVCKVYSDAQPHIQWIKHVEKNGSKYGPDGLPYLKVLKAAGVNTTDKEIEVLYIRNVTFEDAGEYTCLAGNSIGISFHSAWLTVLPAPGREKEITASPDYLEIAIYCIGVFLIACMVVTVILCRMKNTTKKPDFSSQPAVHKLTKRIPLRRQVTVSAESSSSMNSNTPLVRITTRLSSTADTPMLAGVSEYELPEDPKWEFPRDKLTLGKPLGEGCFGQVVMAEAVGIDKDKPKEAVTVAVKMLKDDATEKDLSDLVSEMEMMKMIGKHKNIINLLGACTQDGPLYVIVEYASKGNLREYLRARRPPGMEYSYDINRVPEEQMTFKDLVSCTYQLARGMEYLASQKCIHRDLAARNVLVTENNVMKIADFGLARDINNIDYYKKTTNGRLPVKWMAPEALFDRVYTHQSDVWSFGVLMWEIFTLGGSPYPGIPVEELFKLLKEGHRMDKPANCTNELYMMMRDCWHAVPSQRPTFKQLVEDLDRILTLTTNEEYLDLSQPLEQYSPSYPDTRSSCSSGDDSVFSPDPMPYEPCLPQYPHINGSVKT
UniProt P22607, whole entry, looked up: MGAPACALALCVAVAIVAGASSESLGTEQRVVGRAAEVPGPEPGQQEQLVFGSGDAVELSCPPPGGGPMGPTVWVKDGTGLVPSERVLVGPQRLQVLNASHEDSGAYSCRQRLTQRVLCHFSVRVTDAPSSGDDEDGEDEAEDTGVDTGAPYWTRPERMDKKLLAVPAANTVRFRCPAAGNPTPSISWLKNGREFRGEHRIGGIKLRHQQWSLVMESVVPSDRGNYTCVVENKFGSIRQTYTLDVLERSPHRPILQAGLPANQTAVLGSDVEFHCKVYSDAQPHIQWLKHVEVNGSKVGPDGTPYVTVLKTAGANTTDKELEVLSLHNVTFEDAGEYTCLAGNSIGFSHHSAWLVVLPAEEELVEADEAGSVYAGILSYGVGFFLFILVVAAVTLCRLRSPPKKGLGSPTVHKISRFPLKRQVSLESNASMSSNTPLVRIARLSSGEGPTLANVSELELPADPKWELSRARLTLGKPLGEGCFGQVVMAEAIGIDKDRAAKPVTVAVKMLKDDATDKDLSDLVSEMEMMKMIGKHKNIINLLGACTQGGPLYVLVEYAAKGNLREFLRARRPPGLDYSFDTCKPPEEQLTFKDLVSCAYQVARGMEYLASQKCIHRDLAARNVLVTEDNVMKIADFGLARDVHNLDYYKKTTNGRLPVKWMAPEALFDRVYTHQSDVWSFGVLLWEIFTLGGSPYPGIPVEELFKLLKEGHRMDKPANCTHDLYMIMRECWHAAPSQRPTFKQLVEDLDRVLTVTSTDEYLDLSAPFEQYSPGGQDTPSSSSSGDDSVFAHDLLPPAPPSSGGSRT
UniProt P06241, whole entry, looked up: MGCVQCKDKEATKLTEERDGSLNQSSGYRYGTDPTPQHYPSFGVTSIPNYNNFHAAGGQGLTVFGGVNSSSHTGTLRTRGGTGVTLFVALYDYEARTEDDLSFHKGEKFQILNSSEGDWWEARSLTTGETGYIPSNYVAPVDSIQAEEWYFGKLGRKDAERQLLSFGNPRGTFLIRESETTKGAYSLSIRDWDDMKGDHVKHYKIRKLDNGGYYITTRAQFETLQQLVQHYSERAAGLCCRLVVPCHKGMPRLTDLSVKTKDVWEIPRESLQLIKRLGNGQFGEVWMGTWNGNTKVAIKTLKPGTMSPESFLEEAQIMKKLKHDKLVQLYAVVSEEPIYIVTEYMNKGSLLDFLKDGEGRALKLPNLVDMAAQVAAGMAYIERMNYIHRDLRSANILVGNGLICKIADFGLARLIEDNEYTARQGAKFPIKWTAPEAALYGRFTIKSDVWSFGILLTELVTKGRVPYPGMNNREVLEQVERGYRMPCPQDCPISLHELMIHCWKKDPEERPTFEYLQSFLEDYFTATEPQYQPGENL
UniProt P49840: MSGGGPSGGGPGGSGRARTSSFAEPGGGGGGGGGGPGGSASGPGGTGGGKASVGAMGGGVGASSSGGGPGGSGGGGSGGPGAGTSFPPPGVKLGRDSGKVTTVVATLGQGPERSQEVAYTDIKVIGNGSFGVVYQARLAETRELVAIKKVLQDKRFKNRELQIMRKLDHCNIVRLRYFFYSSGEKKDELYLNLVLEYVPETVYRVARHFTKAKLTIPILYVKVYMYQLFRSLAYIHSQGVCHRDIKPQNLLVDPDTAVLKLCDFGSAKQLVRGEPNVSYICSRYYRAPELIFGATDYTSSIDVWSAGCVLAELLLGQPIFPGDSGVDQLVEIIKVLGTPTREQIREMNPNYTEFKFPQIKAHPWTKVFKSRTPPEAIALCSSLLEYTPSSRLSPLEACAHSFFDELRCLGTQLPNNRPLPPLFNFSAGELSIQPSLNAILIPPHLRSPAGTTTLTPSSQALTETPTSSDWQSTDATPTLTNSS
UniProt P14616: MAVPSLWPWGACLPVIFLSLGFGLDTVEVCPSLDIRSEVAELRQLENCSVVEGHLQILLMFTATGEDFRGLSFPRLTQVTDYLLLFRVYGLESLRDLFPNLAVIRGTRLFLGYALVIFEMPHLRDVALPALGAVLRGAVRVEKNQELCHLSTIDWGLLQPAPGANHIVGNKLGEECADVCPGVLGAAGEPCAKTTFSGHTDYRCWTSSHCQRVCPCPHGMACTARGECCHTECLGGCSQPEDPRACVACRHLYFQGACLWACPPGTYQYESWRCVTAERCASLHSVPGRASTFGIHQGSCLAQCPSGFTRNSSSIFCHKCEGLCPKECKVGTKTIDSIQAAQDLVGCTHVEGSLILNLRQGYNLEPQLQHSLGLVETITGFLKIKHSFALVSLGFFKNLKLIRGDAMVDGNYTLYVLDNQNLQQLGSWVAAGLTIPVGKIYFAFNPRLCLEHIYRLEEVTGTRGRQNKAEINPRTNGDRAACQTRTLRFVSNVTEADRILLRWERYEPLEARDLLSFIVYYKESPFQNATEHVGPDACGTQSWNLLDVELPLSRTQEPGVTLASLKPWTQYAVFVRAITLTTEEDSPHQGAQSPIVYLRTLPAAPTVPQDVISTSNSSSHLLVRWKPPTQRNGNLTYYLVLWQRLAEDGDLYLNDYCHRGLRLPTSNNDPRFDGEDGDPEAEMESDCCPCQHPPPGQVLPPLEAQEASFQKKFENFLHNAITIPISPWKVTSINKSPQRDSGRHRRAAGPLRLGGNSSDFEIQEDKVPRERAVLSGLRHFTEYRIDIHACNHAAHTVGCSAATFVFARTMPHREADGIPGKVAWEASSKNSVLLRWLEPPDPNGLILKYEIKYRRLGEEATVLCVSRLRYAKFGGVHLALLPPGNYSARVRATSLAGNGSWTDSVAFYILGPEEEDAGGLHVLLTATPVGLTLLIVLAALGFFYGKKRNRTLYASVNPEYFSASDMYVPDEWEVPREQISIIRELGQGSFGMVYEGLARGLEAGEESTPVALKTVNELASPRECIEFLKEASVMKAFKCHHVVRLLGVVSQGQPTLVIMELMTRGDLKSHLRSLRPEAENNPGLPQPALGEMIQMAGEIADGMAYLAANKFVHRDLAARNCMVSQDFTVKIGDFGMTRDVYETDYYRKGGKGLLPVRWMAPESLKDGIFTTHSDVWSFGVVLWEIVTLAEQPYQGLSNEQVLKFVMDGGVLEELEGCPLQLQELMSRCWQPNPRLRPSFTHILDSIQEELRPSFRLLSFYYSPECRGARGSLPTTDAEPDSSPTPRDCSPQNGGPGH

| SMILES | kinase-Nluc reporter destabilization hit call (EGFR) | kinase-Nluc reporter destabilization hit call (EGFR_G719S) | kinase-Nluc reporter destabilization hit call (EGFR_G719S_T790M) | kinase-Nluc reporter destabilization hit call (EGFR_L718V) | kinase-Nluc reporter destabilization hit call (EGFR_L858R) | kinase-Nluc reporter destabilization hit call (EGFR_L861Q) | kinase-Nluc reporter destabilization hit call (EGFR_T790M) | kinase-Nluc reporter destabilization hit call (EPHA2) | kinase-Nluc reporter destabilization hit call (ERBB3) | kinase-Nluc reporter destabilization hit call [1] | kinase-Nluc reporter destabilization hit call (ERN1) | kinase-Nluc reporter destabilization hit call (FGFR1) | kinase-Nluc reporter destabilization hit call (FGFR2) | kinase-Nluc reporter destabilization hit call (FGFR3) | kinase-Nluc reporter destabilization hit call (FGR) | kinase-Nluc reporter destabilization hit call (FLT3) | kinase-Nluc reporter destabilization hit call (FYN) | kinase-Nluc reporter destabilization hit call (GSK3A) | kinase-Nluc reporter destabilization hit call (HER2) | kinase-Nluc reporter destabilization hit call (INSRR) |
| --- | --- | --- | --- | --- | --- | --- | --- | --- | --- | --- | --- | --- | --- | --- | --- | --- | --- | --- | --- | --- |
| O=C(N[C@@H](C1CC1)C(F)(F)F)c1cc(-c2cnn3cc(-c4ccc(F)cc4)cnc23)cs1 (10 µM) | inactive: 0 | inactive: 0 | inactive: 0 | inactive: 0 | inactive: 0 | inactive: 0 | inactive: 0 | inactive: 0 | inactive: 0 | inactive: 0 | inactive: 0 | inactive: 0 | inactive: 0 | inactive: 0 | inactive: 0 | inactive: 0 | active: 1 | inactive: 0 | inactive: 0 | inactive: 0 |
| NC(=O)c1cnc2[nH]ccc2c1N[C@@H]1[C@@H]2CC3C[C@H]1C[C@@](O)(C3)C2 [Peficitinib] (10 µM) | inactive: 0 | inactive: 0 | inactive: 0 | inactive: 0 | inactive: 0 | inactive: 0 | inactive: 0 | inactive: 0 | inactive: 0 | inactive: 0 | inactive: 0 | inactive: 0 | inactive: 0 | inactive: 0 | inactive: 0 | inactive: 0 | inactive: 0 | inactive: 0 | inactive: 0 | inactive: 0 |
| Oc1ccc(/C=C/c2cc(O)cc(O)c2)cc1 [Resveratrol] (10 µM) | inactive: 0 | inactive: 0 | inactive: 0 | inactive: 0 | inactive: 0 | inactive: 0 | inactive: 0 | inactive: 0 | inactive: 0 | inactive: 0 | inactive: 0 | inactive: 0 | inactive: 0 | inactive: 0 | inactive: 0 | inactive: 0 | inactive: 0 | inactive: 0 | inactive: 0 | inactive: 0 |
| O=C(Nc1cccc(Nc2ncc(Br)c(NCCc3cnc[nH]3)n2)c1)N1CCCC1 (10 µM) | inactive: 0 | inactive: 0 | inactive: 0 | inactive: 0 | inactive: 0 | inactive: 0 | inactive: 0 | inactive: 0 | inactive: 0 | inactive: 0 | inactive: 0 | inactive: 0 | inactive: 0 | inactive: 0 | inactive: 0 | inactive: 0 | inactive: 0 | inactive: 0 | inactive: 0 | inactive: 0 |
| C[C@@H]1O[C@@H](O[C@@H]2[C@@H](O)[C@H](OCCc3ccc(O)c(O)c3)O[C@H](CO)[C@H]2OC(=O)/C=C/c2ccc(O)c(O)c2)[C@H](O)[C@H](O)[C@H]1O [Verbascoside] (10 µM) | inactive: 0 | inactive: 0 | inactive: 0 | inactive: 0 | inactive: 0 | inactive: 0 | inactive: 0 | inactive: 0 | inactive: 0 | inactive: 0 | inactive: 0 | inactive: 0 | inactive: 0 | inactive: 0 | inactive: 0 | inactive: 0 | inactive: 0 | inactive: 0 | inactive: 0 | inactive: 0 |
| C=CC(=O)N1CCC[C@H](n2c(=O)n(-c3ccc(Oc4ccccc4)cc3)c3c(N)ncnc32)C1 [ONO-4059 (analog)] (10 µM) | inactive: 0 | inactive: 0 | inactive: 0 | inactive: 0 | inactive: 0 | inactive: 0 | inactive: 0 | inactive: 0 | inactive: 0 | inactive: 0 | inactive: 0 | inactive: 0 | inactive: 0 | inactive: 0 | inactive: 0 | inactive: 0 | inactive: 0 | inactive: 0 | inactive: 0 | inactive: 0 |
| Nc1c(C(=O)NCc2ccc(C(=O)NCCCC3CCCCC3)cc2)cnn1-c1ccccc1 (2.5 µM) | inactive: 0 | inactive: 0 | inactive: 0 | inactive: 0 | inactive: 0 | inactive: 0 | inactive: 0 | inactive: 0 | inactive: 0 | inactive: 0 | inactive: 0 | inactive: 0 | inactive: 0 | inactive: 0 | inactive: 0 | inactive: 0 | inactive: 0 | inactive: 0 | inactive: 0 | inactive: 0 |
